Source: US20230276831A1, “Food/Beverage Article” (Kikkoman Corporation, priority 2020, published 2023)
Further values from the same series stand in other lists.

Legend:
[1] = test system: Lactobacillus rennini (DSM 20253); assay: Antimicrobial action of oxygen-containing heterocyclic compounds in soy sauce (Test Example 6); type: cell-based; design: key: A: The bacterial count decreases to less than 10% of the bacterial count of the control group.; B: The bacterial count decreases to 10% or more and less than 50% of the bacterial count of the control group.; C: The bacterial count decreases to 50% or more and less than 100% of the bacterial count of control group.; D: The bacterial count is the same as the bacterial count of the control group; settings: salt 4% (w/v), alcohol 5% (v/v), test substance 1 ppm
Description: Commercially available whole soybean soy sauce (produced by Kikkoman Corporation) was electrodialyzed and then concentrated under reduced pressure to produce soy sauce at a salt concentration of 0% (w/v) and an alcohol concentration of 0% (v/v). Then, salt and/or alcohol was added to the above-mentioned obtained soy sauce, and the mixture was then heat-treated to produce soy sauce at a salt concentration of 4% (w/v) and an alcohol concentration of 5% (v/v).
The test substance described in Table 20 was added to the above-mentioned produced soy sauce to concentrations of 1 to 100 ppm. […] After the culture, the number of lactic acid bacteria was measured using the GAM agar medium “Nissui”. Soy sauce to which licoricidin was not added was used as a control group, and the antimicrobial activity was evaluated in comparison with the number of lactic acid bacteria in the control group. […]
• A: The bacterial count decreases to less than 10% of the bacterial count of the control group. • B: The bacterial count decreases to 10% or more and less than 50% of the bacterial count of control group. • C: The bacterial count decreases to 50% or more and less than 100% of the bacterial count of the control group. • D: The bacterial count is the same as the bacterial count of the control group. • -: Not evaluated

[2] = test system: Lactobacillus rennini DSM 17732; assay: Antimicrobial action of licoricidin in liquid seasoning (1), lactic acid bacteria B; type: cell-based; design: key: A: The bacterial count decreases to less than 10% of the bacterial count of the control group.; B: The bacterial count decreases to 10% or more and less than 50% of the bacterial count of the control group.; C: The bacterial count decreases to 50% or more and less than 100% of the bacterial count of control group.; D: The bacterial count is the same as the bacterial count of the control group
Description: Commercially available whole soybean soy sauce (produced by Kikkoman Corporation) was electrodialyzed and then concentrated under reduced pressure to obtain soy sauce at a salt concentration of 0% (w/v) and an alcohol concentration of 0% (v/v). Then, salt and/or alcohol was added to the above-mentioned obtained soy sauce, and the mixture was heat-treated to produce soy sauces at salt concentrations and alcohol concentrations shown in the following Table 5. The pHs of the soy sauces were 4.9 to 5.0. […]
Licoricidin (produced by ChemFaces) was added to each of the liquid seasonings produced in the above-mentioned (1) to concentrations of 1 ppm, 5 ppm, 10 ppm, 25 ppm, and 50 ppm. Lactic acid bacteria described in the following Table 9 were then added to 10^6 to 10^7 cells/mL and cultured at 30° C. for 7 days. After the culture, the number of lactic acid bacteria was measured using the GAM agar medium “Nissui”. Liquid seasoning to which licoricidin was not added was used as a control group, and the antimicrobial activity was evaluated in comparison with the number of lactic acid bacteria in the control group. The evaluation was performed using the criterion shown below.
• A: The bacterial count decreases to less than 10% of the bacterial count of the control group. • B: The bacterial count decreases to 10% or more and less than 50% of the bacterial count of the control group. • C: The bacterial count decreases to 50% or more and less than 100% of the bacterial count of control group. • D: The bacterial count is the same as the bacterial count of the control group.

Compound: COc1c(CC=C(C)C)c(O)cc2c1C[C@H](c1ccc(O)c(CC=C(C)C)c1O)CO2 [Licoricidin, 4-[(R)-7-hydroxy-5-methoxy-6-(3-methyl-2-butenyl)chroman-3-yl]-2-(3-methyl-2-butenyl)-1,3-benzenediol]
- Antimicrobial activity [1]: D
- Antimicrobial activity ([2]; Bonito stock (salt 0.2% (w/v), alcohol 0.15% (v/v), pH 6.1), licoricidin 1 ppm): C (The bacterial count decreases to 50% or more and less than 100% of the bacterial count of control group.)
- Antimicrobial activity ([2]; Bonito stock (salt 0.2% (w/v), alcohol 0.15% (v/v), pH 6.1), licoricidin 5 ppm): A (The bacterial count decreases to less than 10% of the bacterial count of the control group.)
- Antimicrobial activity ([2]; Bonito stock (salt 0.2% (w/v), alcohol 0.15% (v/v), pH 6.1), licoricidin 10 ppm): A (The bacterial count decreases to less than 10% of the bacterial count of the control group.)
- Antimicrobial activity ([2]; Bonito stock (salt 0.2% (w/v), alcohol 0.15% (v/v), pH 6.1), licoricidin 25 ppm): A (The bacterial count decreases to less than 10% of the bacterial count of the control group.)
- Antimicrobial activity ([2]; Bonito stock (salt 0.2% (w/v), alcohol 0.15% (v/v), pH 6.1), licoricidin 50 ppm): A (The bacterial count decreases to less than 10% of the bacterial count of the control group.)
- Antimicrobial activity ([2]; Japanese seasoned soup stock (salt 3% (w/v), alcohol 0.4% (v/v), pH 5.5), licoricidin 1 ppm): C (The bacterial count decreases to 50% or more and less than 100% of the bacterial count of control group.)
- Antimicrobial activity ([2]; Japanese seasoned soup stock (salt 3% (w/v), alcohol 0.4% (v/v), pH 5.5), licoricidin 5 ppm): A (The bacterial count decreases to less than 10% of the bacterial count of the control group.)
- Antimicrobial activity ([2]; Japanese seasoned soup stock (salt 3% (w/v), alcohol 0.4% (v/v), pH 5.5), licoricidin 10 ppm): A (The bacterial count decreases to less than 10% of the bacterial count of the control group.)
- Antimicrobial activity ([2]; Japanese seasoned soup stock (salt 3% (w/v), alcohol 0.4% (v/v), pH 5.5), licoricidin 25 ppm): A (The bacterial count decreases to less than 10% of the bacterial count of the control group.)
- Antimicrobial activity ([2]; Japanese seasoned soup stock (salt 3% (w/v), alcohol 0.4% (v/v), pH 5.5), licoricidin 50 ppm): A (The bacterial count decreases to less than 10% of the bacterial count of the control group.)
- Antimicrobial activity ([2]; Sauce (salt 5.3% (w/v), alcohol 0.8% (v/v), pH 5.0), licoricidin 1 ppm): D
- Antimicrobial activity ([2]; Sauce (salt 5.3% (w/v), alcohol 0.8% (v/v), pH 5.0), licoricidin 5 ppm): A (The bacterial count decreases to less than 10% of the bacterial count of the control group.)
- Antimicrobial activity ([2]; Sauce (salt 5.3% (w/v), alcohol 0.8% (v/v), pH 5.0), licoricidin 10 ppm): A (The bacterial count decreases to less than 10% of the bacterial count of the control group.)
- Antimicrobial activity ([2]; Sauce (salt 5.3% (w/v), alcohol 0.8% (v/v), pH 5.0), licoricidin 25 ppm): A (The bacterial count decreases to less than 10% of the bacterial count of the control group.)
- Antimicrobial activity ([2]; Sauce (salt 5.3% (w/v), alcohol 0.8% (v/v), pH 5.0), licoricidin 50 ppm): A (The bacterial count decreases to less than 10% of the bacterial count of the control group.)
- Antimicrobial activity ([2]; Soy sauce, salt 0% (w/v), alcohol 0% (v/v), licoricidin 1 ppm): B (The bacterial count decreases to 10% or more and less than 50% of the bacterial count of the control group.)
- Antimicrobial activity ([2]; Soy sauce, salt 0% (w/v), alcohol 0% (v/v), licoricidin 5 ppm): B (The bacterial count decreases to 10% or more and less than 50% of the bacterial count of the control group.)
- Antimicrobial activity ([2]; Soy sauce, salt 0% (w/v), alcohol 0% (v/v), licoricidin 10 ppm): B (The bacterial count decreases to 10% or more and less than 50% of the bacterial count of the control group.)
- Antimicrobial activity ([2]; Soy sauce, salt 0% (w/v), alcohol 0% (v/v), licoricidin 25 ppm): A (The bacterial count decreases to less than 10% of the bacterial count of the control group.)
- Antimicrobial activity ([2]; Soy sauce, salt 0% (w/v), alcohol 0% (v/v), licoricidin 50 ppm): A (The bacterial count decreases to less than 10% of the bacterial count of the control group.)
- Antimicrobial activity ([2]; Soy sauce, salt 4% (w/v), alcohol 0% (v/v), licoricidin 1 ppm): B (The bacterial count decreases to 10% or more and less than 50% of the bacterial count of the control group.)
- Antimicrobial activity ([2]; Soy sauce, salt 4% (w/v), alcohol 0% (v/v), licoricidin 5 ppm): A (The bacterial count decreases to less than 10% of the bacterial count of the control group.)
- Antimicrobial activity ([2]; Soy sauce, salt 4% (w/v), alcohol 0% (v/v), licoricidin 10 ppm): A (The bacterial count decreases to less than 10% of the bacterial count of the control group.)
- Antimicrobial activity ([2]; Soy sauce, salt 4% (w/v), alcohol 0% (v/v), licoricidin 25 ppm): A (The bacterial count decreases to less than 10% of the bacterial count of the control group.)
- Antimicrobial activity ([2]; Soy sauce, salt 4% (w/v), alcohol 0% (v/v), licoricidin 50 ppm): A (The bacterial count decreases to less than 10% of the bacterial count of the control group.)
- Antimicrobial activity ([2]; Soy sauce, salt 8% (w/v), alcohol 0% (v/v), licoricidin 1 ppm): C (The bacterial count decreases to 50% or more and less than 100% of the bacterial count of control group.)
- Antimicrobial activity ([2]; Soy sauce, salt 8% (w/v), alcohol 0% (v/v), licoricidin 5 ppm): A (The bacterial count decreases to less than 10% of the bacterial count of the control group.)
- Antimicrobial activity ([2]; Soy sauce, salt 8% (w/v), alcohol 0% (v/v), licoricidin 10 ppm): A (The bacterial count decreases to less than 10% of the bacterial count of the control group.)
- Antimicrobial activity ([2]; Soy sauce, salt 8% (w/v), alcohol 0% (v/v), licoricidin 25 ppm): A (The bacterial count decreases to less than 10% of the bacterial count of the control group.)
- Antimicrobial activity ([2]; Soy sauce, salt 8% (w/v), alcohol 0% (v/v), licoricidin 50 ppm): A (The bacterial count decreases to less than 10% of the bacterial count of the control group.)
- Antimicrobial activity ([2]; Soy sauce, salt 12% (w/v), alcohol 0% (v/v), licoricidin 1 ppm): A (The bacterial count decreases to less than 10% of the bacterial count of the control group.)
- Antimicrobial activity ([2]; Soy sauce, salt 12% (w/v), alcohol 0% (v/v), licoricidin 5 ppm): A (The bacterial count decreases to less than 10% of the bacterial count of the control group.)
- Antimicrobial activity ([2]; Soy sauce, salt 12% (w/v), alcohol 0% (v/v), licoricidin 10 ppm): A (The bacterial count decreases to less than 10% of the bacterial count of the control group.)
- Antimicrobial activity ([2]; Soy sauce, salt 12% (w/v), alcohol 0% (v/v), licoricidin 25 ppm): A (The bacterial count decreases to less than 10% of the bacterial count of the control group.)
- Antimicrobial activity ([2]; Soy sauce, salt 12% (w/v), alcohol 0% (v/v), licoricidin 50 ppm): A (The bacterial count decreases to less than 10% of the bacterial count of the control group.)
